Common to all, as to details: 72 h
Assay [1] deals with HCC1937. Kind of assay: relative cell viability, compound + RSL3, vs DMSO (fraction of DMSO control); higher = less growth inhibition.
For assay [2], the system named is MDA-MB-231. The assay is described as above.
In assay [3] the test system is HCC1937. Kind of assay: relative cell viability, compound alone, vs DMSO (fraction of DMSO control); higher = less growth inhibition.
Assay [4] concerns MDA-MB-231. The assay is described as above.

This is a selection; strong and weak results do not stand in their true shares.
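Wherever relative cell viability, compound + RSL3, vs DMSO is given: breast cancer cell viability read out with the CCK-8 kit after co-treatment of each compound with the ferroptosis inducer RSL3.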
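Wherever relative cell viability, compound alone, vs DMSO is given: viability read out with the CCK-8 kit in 96-well plates, screening a set of 303 compounds acting on lipid metabolism targets.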

Take `Cc1c(C(=O)NN2CCCCC2)nn(-c2ccc(Cl)cc2Cl)c1-c1ccc(I)cc1` + COC(=O)c1ccc([C@H]2c3[nH]c4ccccc4c3C[C@H](C(=O)OC)N2C(=O)CCl)cc1 [RSL3]: the relative cell viability with HCC1937 [1] was found to be 0.416; in the assay with MDA-MB-231 [2] it was 0.503.

Regarding `Cc1c(C(=O)NN2CCCCC2)nn(-c2ccc(Cl)cc2Cl)c1-c1ccc(I)cc1`, the relative cell viability with HCC1937 [3] was 0.722; in the assay with MDA-MB-231 [4] it was 0.899.

These data come from the supplement of paper PMC9492666.
